Data as given in PubChem BioAssay AID1259405 (NCATS, 2018)
This is a random part of about 50,000 reagents. About 4,000 of all reagents (8%) were called active. 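Mouse siRNA library applied to hamster cells; one well for each siRNA.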 Reagent sequences are not shown.

- Purpose: 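Silenced genes that increase secreted GFP made by CHO cells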 (primary screen)
- System: Chinese hamster CHO-K1 ovary cells with stable secreted eGFP expression
- Reagent: single siRNA against mouse genes, 0.8 pmol siRNA per well (2 µl of 400 nM stock)
- Timing: 3 days
- Read-out: 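Percent of the per-plate non-targeting control median for intracellular GFP per well by laser scanning cytometry and for cell viability by ATP luminescence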
- Direction: GFP, % of control: higher = more GFP per well, higher productivity; viability (ATP), % of control: higher = more viable cells (more ATP)
- Rule for the call: 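Called active when intracellular GFP, relative to negative control, is at or above 120%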

gene symbol | PubChem SID | GFP, % of control | viability (ATP), % of control | call
C1qc (complement component 1, q subcomponent, C chain) | SID363553856 | 74 | 42.7 | inactive
C1qc (complement component 1, q subcomponent, C chain) | SID363561813 | 106 | 71.6 | inactive
C1qc (complement component 1, q subcomponent, C chain) | SID363565551 | 66.4 | 50.7 | inactive
Zbtb11os1 (zinc finger and BTB domain containing 11, opposite strand 1) | SID363543459 | 103 | 95.4 | inactive
Zbtb11os1 (zinc finger and BTB domain containing 11, opposite strand 1) | SID363552952 | 84.8 | 87.2 | inactive
Zbtb11os1 (zinc finger and BTB domain containing 11, opposite strand 1) | SID363558800 | 75.4 | 70.9 | inactive
Fgf12 (fibroblast growth factor 12) | SID363541545 | 50.3 | 69.1 | inactive
Fgf12 (fibroblast growth factor 12) | SID363556172 | 57.8 | 62.3 | inactive
Fgf12 (fibroblast growth factor 12) | SID363566461 | 55.3 | 51.7 | inactive
Vps11 (VPS11, CORVET/HOPS core subunit) | SID363582554 | 93.8 | 113 | inactive
Vps11 (VPS11, CORVET/HOPS core subunit) | SID363584314 | 68.2 | 102 | inactive
Pgf (placental growth factor) | SID363541813 | 74.8 | 79.3 | inactive
Pgf (placental growth factor) | SID363553405 | 82.5 | 83.2 | inactive
Pgf (placental growth factor) | SID363566729 | 53.3 | 67.9 | inactive

Next part, starting with the last 3 of the part before.
gene symbol | PubChem SID | GFP, % of control | viability (ATP), % of control | call
Pgf (placental growth factor) | SID363541813 | 74.8 | 79.3 | inactive
Pgf (placental growth factor) | SID363553405 | 82.5 | 83.2 | inactive
Pgf (placental growth factor) | SID363566729 | 53.3 | 67.9 | inactive
Ovol2 (ovo like zinc finger 2) | SID363573606 | 68.3 | 57.2 | inactive
Ovol2 (ovo like zinc finger 2) | SID363581350 | 87 | 83.3 | inactive
Ovol2 (ovo like zinc finger 2) | SID363583814 | 55.8 | 71.5 | inactive
Ubl3 (ubiquitin-like 3) | SID363556778 | 107 | 98.3 | inactive
Ubl3 (ubiquitin-like 3) | SID363563682 | 57.5 | 71.7 | inactive
Ubl3 (ubiquitin-like 3) | SID363587228 | 95.1 | 101 | inactive
Meox1 (mesenchyme homeobox 1) | SID363569386 | 102 | 102 | inactive
Meox1 (mesenchyme homeobox 1) | SID363577130 | 85.9 | 95.9 | inactive
Meox1 (mesenchyme homeobox 1) | SID363578538 | 74.2 | 59.5 | inactive
Cops2 (COP9 signalosome subunit 2) | SID363550329 | 80.2 | 80.5 | inactive
Cops2 (COP9 signalosome subunit 2) | SID363564838 | 96.7 | 77 | inactive
Cops2 (COP9 signalosome subunit 2) | SID363588383 | 90.3 | 101 | inactive
Dspp (dentin sialophosphoprotein) | SID363539647 | 77.1 | 67.3 | inactive
Dspp (dentin sialophosphoprotein) | SID363560948 | 89.3 | 101 | inactive
Dspp (dentin sialophosphoprotein) | SID363565038 | 97 | 75.8 | inactive
Pbx2 (pre B cell leukemia homeobox 2) | SID363573847 | 51.4 | 76.7 | inactive
Pbx2 (pre B cell leukemia homeobox 2) | SID363581591 | 67 | 87.9 | inactive
Pbx2 (pre B cell leukemia homeobox 2) | SID363584055 | 99.8 | 118 | inactive
H2-Ea (histocompatibility 2, class II antigen E alpha) | SID363553702 | 93.4 | 100 | inactive
H2-Ea (histocompatibility 2, class II antigen E alpha) | SID363561659 | 116 | 88.8 | inactive
H2-Ea (histocompatibility 2, class II antigen E alpha) | SID363565397 | 82.2 | 89.2 | inactive
